Numbering of substitutions follows the chain as printed. No constants are given. Whether binding was seen depends on the method and setting. Some entries that bind do so weakly or less than the wild type.
Columns and labels:
[1] = target: Aβ(1-42) globulomer (human) (UniProt P05067); assay: native PAGE Western blot
[2] = target: Aβ(1-42) globulomer (human) (UniProt P05067); assay: dot blot immunoassay
[3] = target: fibrillar Aβ peptide deposits (amyloid plaques and vascular amyloid) in brain sections (human) (UniProt P05067); assay: immunohistochemistry, image analysis of plaque optical density
[4] = target: Aβ(1-42) fibrils (human) (UniProt P05067); assay: co-sedimentation with Aβ(1-42) fibrils, Coomassie SDS-PAGE
[5] = target: Aβ(1-42) globulomer (human) (UniProt P05067); assay: dot blot
[6] = target: fibrillar Aβ peptide deposits (amyloid plaques and vascular amyloid) in brain sections (human) (UniProt P05067); assay: immunohistochemistry on neocortex sections of AD patients and Tg2576 mice

Chains of the proteins cited; added tags and fusions are not shown. Residues count along the entry.
UniProt P05067, residues 672-713: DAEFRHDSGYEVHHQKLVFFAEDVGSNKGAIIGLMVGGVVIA

Measured: binding

B1: monoclonal antibody 8F5 (antibody, V domains shown)
VH: EVQLVESGGGLVQPGGSLKLSCAASGFTFSSYGMSWVRQTPDKRLELVASINSNGGSTYYPDSVKGRFTISRDNAKNTLYLQMSSLKSEDTAMYYCASGDYWGQGSTLTVSS
VL: DVVMTQTPLSLPVSLGDQASISCRSSQSLVYSNGDTYLHWYLQKPGQSPKLLIYKVSNRFSGVPDRFSGSGSGTDFTLKISRVEAEDLGVYFCSQSTHVPWTFGGGTKLEIKR
binds: [1] | [2] | [3] | [4] | [5] | [6]

B2: monoclonal antibody 8C5 (antibody, V domains shown)
VH: B1 VH with A23T, N52K, S53N, V64L, S106T
VL: B1 VL with Y31H, Y37F, V90I, T97I
binds: [3] | [5] | [6]

Reference: patent publication US8497072
